The other results are listed elsewhere or left out.
The sequences below were run against OsWRKY34 (Oryza sativa, UniProt Q0JBA9 1-250) (assay: protein-binding microarray (RPBM); PBS, 2% BSA, 51.3 ng/ul salmon testes DNA, 50 uM zinc acetate, 200 nM TF, 25 C, 1 h; high values mean tight binding). Conditions: protein: recombinant; tags: N-terminal polyhistidine and DsRed monomer fusion (pET32a); label: CyDye5-dUTP incorporated in the synthesized complementary strand; 3' TTTTT single-stranded linker to array surface; dsDNA, one strand shown.
Procedure, shortened: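 Binding signal here means per-feature fluorescence intensity in arbitrary units. The values were read on an Axon 4000B scanner after a custom Agilent array, double-stranded by primer extension with Cy5-dUTP, was incubated with 200 nM protein at 25 °C for 1 h in PBS with 2% BSA, salmon testes DNA and 50 µM zinc acetate, then washed. The proteins were transcription factors with an N-terminal polyhistidine tag and DsRed, expressed in E. coli BL21-CodonPlus and purified on Ni–NTA.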

Amino acid sequences for entries named in this document (tags omitted).
UniProt Q0JBA9, entry or part of it: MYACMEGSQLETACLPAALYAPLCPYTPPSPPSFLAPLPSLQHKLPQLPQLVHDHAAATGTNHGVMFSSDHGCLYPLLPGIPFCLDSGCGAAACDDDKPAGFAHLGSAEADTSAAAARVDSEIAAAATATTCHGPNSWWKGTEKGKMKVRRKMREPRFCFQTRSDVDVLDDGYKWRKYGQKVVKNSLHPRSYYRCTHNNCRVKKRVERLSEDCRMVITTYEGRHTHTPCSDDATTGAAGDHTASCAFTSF

“ACTTTTTAAAACATGTTTGACCGTTCATCTTATTTAAAAACGGAGTCACCTAGTGCAG” was tested. Which binding signal did it give?
Its binding signal is 8690 fluorescence intensity (a.u.).

How did the binding signal turn out when “CTATACTATGTCTATGAATGTTATTTTTACTGGCTTTTGACGGAGTCACCTAGTGCAG” was run?
The binding signal was 9090 fluorescence intensity (a.u.).

With “TTGCATCCTTTTAGTATATTGTGTCCCTTTTGTGTGTTCTCGGAGTCACCTAGTGCAG” as the sequence, how does the binding signal read?
Its binding signal is 10400 fluorescence intensity (a.u.).

With “TACTGTAAATCTTGGAGTTATCTTTCTTGTCACAATATCTCGGAGTCACCTAGTGCAG” as the sequence, how does the binding signal read?
The binding signal was 8700 fluorescence intensity (a.u.).

“TTTTTTTATCTCACTTATTTATTCATGTTTACATTTCCAGCGGAGTCACCTAGTGCAG” was tested. Which binding signal did it give?
The binding signal was 8620 fluorescence intensity (a.u.).

How did the binding signal turn out when “GGTGCGTGTTCGGGATGGGGTTCGGGTTCAATTTCAGGTTCGGAGTCACCTAGTGCAG” was run?
Its binding signal is 16700 fluorescence intensity (a.u.).

“GGAATGCGTGCCACACTCTTTGCACATTTTGGTCAGCACACGGAGTCACCTAGTGCAG” was tested. Which binding signal did it give?
Its binding signal is 8030 fluorescence intensity (a.u.).

How did the binding signal turn out when “GCGGTGTGCATATCAATGGAGGCCAAAGGATTCAGTCGTCCGGAGTCACCTAGTGCAG” was run?
Its binding signal is 8510 fluorescence intensity (a.u.).

For “GAATATAATGAAATTTCACAGAGGAGGGGCTGGGCTTTATCGGAGTCACCTAGTGCAG”, which binding signal is on record?
The binding signal was 10300 fluorescence intensity (a.u.).

How did the binding signal turn out when “TATTTTTTACCATTTCCATTTTTGTTTCGGTCGATTACCACGGAGTCACCTAGTGCAG” was run?
Its binding signal is 10300 fluorescence intensity (a.u.).

For “AGCTTTCCTCGGCTCGTTTCCACCCCTAGCCGTCAGTGTACGGAGTCACCTAGTGCAG”, which binding signal is on record?
Its binding signal is 10100 fluorescence intensity (a.u.).

“CTGGCTCACCATTCCCATTGGATTACCAGATATAGCTTCACGGAGTCACCTAGTGCAG” was tested. Which binding signal did it give?
Its binding signal is 8680 fluorescence intensity (a.u.).

Which binding signal does the source give for “CTGCCGCGTTTTGGAGCCTCATAGGCATGGTTTAATTATTCGGAGTCACCTAGTGCAG” here?
The binding signal was 9420 fluorescence intensity (a.u.).

Which binding signal does the source give for “CGCAACTCGCGCACAGCCCGCCCGGCCTGTCTAGCGCCTCCGGAGTCACCTAGTGCAG” here?
The binding signal was 8060 fluorescence intensity (a.u.).

How did the binding signal turn out when “CGCCTCCGTCATCGCGTACGCCTCCACCACCGGCGCCCCGCGGAGTCACCTAGTGCAG” was run?
Its binding signal is 8510 fluorescence intensity (a.u.).

How did the binding signal turn out when “CACCGGCTGTTGACTGCTCTTCTGTCTGTACATTAATGGCCGGAGTCACCTAGTGCAG” was run?
Its binding signal is 8720 fluorescence intensity (a.u.).

Which binding signal does the source give for “GCATGTGCTTTTGCTGTCTGAATTCAGAATCAGCGTTACCCGGAGTCACCTAGTGCAG” here?
The binding signal was 8760 fluorescence intensity (a.u.).

For “TAGTTTCCATATCATAATACTCTTTACTTTCTGCTTGCTTCGGAGTCACCTAGTGCAG”, which binding signal is on record?
The binding signal was 9080 fluorescence intensity (a.u.).

With “AATAAGTCTATTTTGCCTCCATCATATATCGAACCGTGTCCGGAGTCACCTAGTGCAG” as the sequence, how does the binding signal read?
Its binding signal is 8070 fluorescence intensity (a.u.).

How did the binding signal turn out when “ACCAGCTGAATATCATATAGTAGTACACACTCATGCATACCGGAGTCACCTAGTGCAG” was run?
The binding signal was 8300 fluorescence intensity (a.u.).

Which binding signal does the source give for “TGACAGCATGAAACTCATCCTCTACTTCCATACCACAAATCGGAGTCACCTAGTGCAG” here?
The binding signal was 8130 fluorescence intensity (a.u.).

“CCAAGGGGTGCTAAATGGGGCTAATTTTGTGTGGGGACCACGGAGTCACCTAGTGCAG” was tested. Which binding signal did it give?
The binding signal was 9970 fluorescence intensity (a.u.).

How did the binding signal turn out when “CTTCCATCTCCTGCCTGCACCCCTATATATTTCAGTTTCACGGAGTCACCTAGTGCAG” was run?
The binding signal was 9100 fluorescence intensity (a.u.).

How did the binding signal turn out when “GCACGCTCAATTACCATACACATCAGCTAACAAGTAATAACGGAGTCACCTAGTGCAG” was run?
The binding signal was 8470 fluorescence intensity (a.u.).

“GACCATCTGTTTTTGTATCCTTTTTTGTCATTGTAATGACCGGAGTCACCTAGTGCAG” was tested. Which binding signal did it give?
The binding signal was 13700 fluorescence intensity (a.u.).

“AAAACCTTTTCATCTTTTCTTACTGGTTTATTTTACCAATCGGAGTCACCTAGTGCAG” was tested. Which binding signal did it give?
Its binding signal is 8480 fluorescence intensity (a.u.).

With “AATCCACAATACGCGCGGCGGCTTCTTTCCTCTTTCGCTCCGGAGTCACCTAGTGCAG” as the sequence, how does the binding signal read?
The binding signal was 10300 fluorescence intensity (a.u.).

For “CGGAGGTGGTTGACTGGTTCTCTGCCAGTATGCTGATTTTCGGAGTCACCTAGTGCAG”, which binding signal is on record?
Its binding signal is 8740 fluorescence intensity (a.u.).

For “CCACCTCTCGTCCGCCAAACGCGGCCGCCCTCTCCCCACGCGGAGTCACCTAGTGCAG”, which binding signal is on record?
Its binding signal is 8740 fluorescence intensity (a.u.).

With “AGGATGTGATTAGTTGGGGATGTTAAGATTAGATTAGATACGGAGTCACCTAGTGCAG” as the sequence, how does the binding signal read?
Its binding signal is 10600 fluorescence intensity (a.u.).

“ACACCCAACCCGATCCACATCATCCCCAAACCTCCCTTCCCGGAGTCACCTAGTGCAG” was tested. Which binding signal did it give?
The binding signal was 8580 fluorescence intensity (a.u.).

Which binding signal does the source give for “CCATTGGGTCACCCACGCGTAATATTGCCATCCCTACATTCGGAGTCACCTAGTGCAG” here?
Its binding signal is 10800 fluorescence intensity (a.u.).

For “AAAAAAGGCTATCTATTTATTTCTTCCATGCTATTATGACCGGAGTCACCTAGTGCAG”, which binding signal is on record?
The binding signal was 8420 fluorescence intensity (a.u.).

Which binding signal does the source give for “GCAGCTCTCTTGTGTACCACCTGGATATTTTTCTGGTGCCCGGAGTCACCTAGTGCAG” here?
The binding signal was 8550 fluorescence intensity (a.u.).

Which binding signal does the source give for “ACTACTAATTAAGTTATTATACCCACCTTGCAATTTATTACGGAGTCACCTAGTGCAG” here?
Its binding signal is 8910 fluorescence intensity (a.u.).

How did the binding signal turn out when “AATTTACAGCTTCATTTTCTGGATTCTCTAATTATATTTTCGGAGTCACCTAGTGCAG” was run?
The binding signal was 8770 fluorescence intensity (a.u.).

How did the binding signal turn out when “GATTGCCAGCCAGCCCAACTCCTTCCTACTCCTGGTACTACGGAGTCACCTAGTGCAG” was run?
The binding signal was 9630 fluorescence intensity (a.u.).

For “CCCTCTTATTCCTACACTGTAGACGGAGGCCTGTTTTGTCCGGAGTCACCTAGTGCAG”, which binding signal is on record?
The binding signal was 8920 fluorescence intensity (a.u.).

With “GTTCCCAACATCATCTCCCTCGTTTTTCGCGTACACGCTTCGGAGTCACCTAGTGCAG” as the sequence, how does the binding signal read?
Its binding signal is 8140 fluorescence intensity (a.u.).

With “CAGCGGAGAGCGGCGGCGGCGAGTAGGATGGGGTTTGATTCGGAGTCACCTAGTGCAG” as the sequence, how does the binding signal read?
The binding signal was 8380 fluorescence intensity (a.u.).

For “GGATCATCTATTTTTTTTGTTTTGTTACACTTTGGACTATCGGAGTCACCTAGTGCAG”, which binding signal is on record?
Its binding signal is 9290 fluorescence intensity (a.u.).

With “CTCCGCCTCCGCCTCCGCGTGCTCCCGTAACCGCGCCGCCCGGAGTCACCTAGTGCAG” as the sequence, how does the binding signal read?
The binding signal was 8230 fluorescence intensity (a.u.).

For “GACGGTTGATTTTTTTGGGTATTTTTGTCCTTCTCTTAATCGGAGTCACCTAGTGCAG”, which binding signal is on record?
The binding signal was 9400 fluorescence intensity (a.u.).

Which binding signal does the source give for “AAATTGTTATTAAACCGGTAGTTTTGTAGTTCTTAAATCTCGGAGTCACCTAGTGCAG” here?
Its binding signal is 10500 fluorescence intensity (a.u.).

For “CCAATCCTACCTTGTCTTTGTTCTTTCTTCCTCCGACGACCGGAGTCACCTAGTGCAG”, which binding signal is on record?
Its binding signal is 9580 fluorescence intensity (a.u.).

With “CGTCGCCTCGCCTCGTCACGGCCGCCTCCGCCATCGCCTCCGGAGTCACCTAGTGCAG” as the sequence, how does the binding signal read?
Its binding signal is 9550 fluorescence intensity (a.u.).

How did the binding signal turn out when “TTCCAGCTGCTTCAAAACTGACCCATCGTGTAGTATGACTCGGAGTCACCTAGTGCAG” was run?
The binding signal was 8900 fluorescence intensity (a.u.).

How did the binding signal turn out when “ATGGACCAATTCCGTCTGATATTGGTCGTCTTGCTGAGCTCGGAGTCACCTAGTGCAG” was run?
Its binding signal is 8520 fluorescence intensity (a.u.).

For “CACGTTTTATAATGTGCCATCGACTTTTGCTTAACTTCTACGGAGTCACCTAGTGCAG”, which binding signal is on record?
The binding signal was 8300 fluorescence intensity (a.u.).

How did the binding signal turn out when “TCCCAACCTATCTTCCTCGTTTTCCACGCGCAGGCTTTTCCGGAGTCACCTAGTGCAG” was run?
The binding signal was 9320 fluorescence intensity (a.u.).

How did the binding signal turn out when “ATCTCGCGTATACCCTGGTTCCTGGTTTCATCAATCCCCACGGAGTCACCTAGTGCAG” was run?
Its binding signal is 10600 fluorescence intensity (a.u.).

For “TGGGTATGTGATATGTGTGCGTGTGCTTGTTCCGTGTAATCGGAGTCACCTAGTGCAG”, which binding signal is on record?
Its binding signal is 8550 fluorescence intensity (a.u.).

For “AGCGCTTTGCTGCCGCCGTCGTCTTGCCTTCACCGCTAAGCGGAGTCACCTAGTGCAG”, which binding signal is on record?
The binding signal was 10100 fluorescence intensity (a.u.).

Which binding signal does the source give for “CATCTTTATTCTGTTTCTTGATGTGCTTCCTATGTATCACCGGAGTCACCTAGTGCAG” here?
Its binding signal is 13300 fluorescence intensity (a.u.).

Reference: article PMC7819943, “Rice protein-binding microarrays: a tool to detect cis-acting elements near promoter regions in rice”
